Data as given in the supplement of paper PMC10849652.
This is one part of the list.

Protein sequences, listed by entry. Tags and fused reporters are not part of them. Lines headed by an entry give the natural chain unless they say otherwise; changes in a name come on top.
UniProt Q9Y2T2: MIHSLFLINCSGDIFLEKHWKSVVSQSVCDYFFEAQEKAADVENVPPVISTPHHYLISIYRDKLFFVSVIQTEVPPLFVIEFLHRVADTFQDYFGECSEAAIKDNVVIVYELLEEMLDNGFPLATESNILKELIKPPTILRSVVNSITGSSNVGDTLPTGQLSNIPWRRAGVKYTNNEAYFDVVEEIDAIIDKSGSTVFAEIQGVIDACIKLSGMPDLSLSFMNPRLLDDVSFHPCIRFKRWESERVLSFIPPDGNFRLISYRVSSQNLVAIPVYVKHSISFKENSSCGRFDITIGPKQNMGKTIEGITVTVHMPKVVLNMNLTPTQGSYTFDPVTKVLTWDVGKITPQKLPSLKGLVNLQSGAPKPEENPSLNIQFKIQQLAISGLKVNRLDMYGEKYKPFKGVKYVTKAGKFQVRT
UniProt P02654: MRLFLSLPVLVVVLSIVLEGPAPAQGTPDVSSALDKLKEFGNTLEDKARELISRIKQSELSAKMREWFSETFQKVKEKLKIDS
UniProt P61966: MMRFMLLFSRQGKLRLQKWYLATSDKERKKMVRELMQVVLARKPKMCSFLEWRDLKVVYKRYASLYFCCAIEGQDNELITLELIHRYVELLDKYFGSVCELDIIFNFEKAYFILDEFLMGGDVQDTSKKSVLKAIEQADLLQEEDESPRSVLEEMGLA
UniProt Q9NP61: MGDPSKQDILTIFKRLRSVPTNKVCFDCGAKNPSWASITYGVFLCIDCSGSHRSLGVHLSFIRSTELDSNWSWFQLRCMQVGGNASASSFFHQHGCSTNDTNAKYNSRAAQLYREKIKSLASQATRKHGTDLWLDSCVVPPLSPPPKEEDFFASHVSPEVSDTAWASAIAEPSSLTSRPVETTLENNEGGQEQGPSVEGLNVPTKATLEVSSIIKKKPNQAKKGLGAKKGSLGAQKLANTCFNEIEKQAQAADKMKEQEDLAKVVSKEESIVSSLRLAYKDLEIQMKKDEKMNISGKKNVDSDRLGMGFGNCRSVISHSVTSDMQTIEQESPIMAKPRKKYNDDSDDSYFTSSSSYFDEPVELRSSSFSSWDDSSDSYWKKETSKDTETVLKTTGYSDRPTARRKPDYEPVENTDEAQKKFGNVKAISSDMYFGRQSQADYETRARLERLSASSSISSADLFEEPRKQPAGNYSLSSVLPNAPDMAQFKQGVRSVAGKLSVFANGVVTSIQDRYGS
UniProt P84077: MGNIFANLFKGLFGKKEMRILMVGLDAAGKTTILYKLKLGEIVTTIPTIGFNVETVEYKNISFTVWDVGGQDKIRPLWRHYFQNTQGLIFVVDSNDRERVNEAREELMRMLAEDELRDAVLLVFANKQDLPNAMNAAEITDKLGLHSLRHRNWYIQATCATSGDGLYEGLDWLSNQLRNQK
UniProt P62330: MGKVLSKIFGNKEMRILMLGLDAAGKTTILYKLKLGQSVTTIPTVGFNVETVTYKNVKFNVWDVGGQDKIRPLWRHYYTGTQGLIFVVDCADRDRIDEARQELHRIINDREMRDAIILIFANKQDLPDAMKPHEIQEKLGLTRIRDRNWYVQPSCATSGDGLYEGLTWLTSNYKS
UniProt Q68EM7: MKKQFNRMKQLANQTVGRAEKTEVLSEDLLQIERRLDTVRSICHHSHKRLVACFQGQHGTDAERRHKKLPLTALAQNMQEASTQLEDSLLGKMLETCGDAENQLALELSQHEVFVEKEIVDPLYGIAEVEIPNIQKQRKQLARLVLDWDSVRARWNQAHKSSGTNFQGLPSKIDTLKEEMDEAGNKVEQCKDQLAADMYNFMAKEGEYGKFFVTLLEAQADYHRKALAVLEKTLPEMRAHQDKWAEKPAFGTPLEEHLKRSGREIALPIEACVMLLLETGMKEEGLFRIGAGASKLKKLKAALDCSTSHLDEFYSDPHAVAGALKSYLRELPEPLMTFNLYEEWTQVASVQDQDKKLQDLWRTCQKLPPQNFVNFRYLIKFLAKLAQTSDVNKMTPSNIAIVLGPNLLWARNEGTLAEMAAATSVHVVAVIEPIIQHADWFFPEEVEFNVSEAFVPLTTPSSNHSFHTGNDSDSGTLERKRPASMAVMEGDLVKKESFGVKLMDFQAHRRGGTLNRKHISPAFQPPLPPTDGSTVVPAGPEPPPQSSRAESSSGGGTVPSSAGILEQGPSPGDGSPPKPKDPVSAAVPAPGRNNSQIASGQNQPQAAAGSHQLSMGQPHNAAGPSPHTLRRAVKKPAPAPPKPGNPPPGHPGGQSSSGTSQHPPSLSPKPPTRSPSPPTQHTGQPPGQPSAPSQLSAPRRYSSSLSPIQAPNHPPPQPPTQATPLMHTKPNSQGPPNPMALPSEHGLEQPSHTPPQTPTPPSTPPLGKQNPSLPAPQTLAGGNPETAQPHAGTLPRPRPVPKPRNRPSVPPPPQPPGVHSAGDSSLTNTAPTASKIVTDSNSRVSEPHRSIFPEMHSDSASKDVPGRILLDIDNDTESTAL
UniProt O60306: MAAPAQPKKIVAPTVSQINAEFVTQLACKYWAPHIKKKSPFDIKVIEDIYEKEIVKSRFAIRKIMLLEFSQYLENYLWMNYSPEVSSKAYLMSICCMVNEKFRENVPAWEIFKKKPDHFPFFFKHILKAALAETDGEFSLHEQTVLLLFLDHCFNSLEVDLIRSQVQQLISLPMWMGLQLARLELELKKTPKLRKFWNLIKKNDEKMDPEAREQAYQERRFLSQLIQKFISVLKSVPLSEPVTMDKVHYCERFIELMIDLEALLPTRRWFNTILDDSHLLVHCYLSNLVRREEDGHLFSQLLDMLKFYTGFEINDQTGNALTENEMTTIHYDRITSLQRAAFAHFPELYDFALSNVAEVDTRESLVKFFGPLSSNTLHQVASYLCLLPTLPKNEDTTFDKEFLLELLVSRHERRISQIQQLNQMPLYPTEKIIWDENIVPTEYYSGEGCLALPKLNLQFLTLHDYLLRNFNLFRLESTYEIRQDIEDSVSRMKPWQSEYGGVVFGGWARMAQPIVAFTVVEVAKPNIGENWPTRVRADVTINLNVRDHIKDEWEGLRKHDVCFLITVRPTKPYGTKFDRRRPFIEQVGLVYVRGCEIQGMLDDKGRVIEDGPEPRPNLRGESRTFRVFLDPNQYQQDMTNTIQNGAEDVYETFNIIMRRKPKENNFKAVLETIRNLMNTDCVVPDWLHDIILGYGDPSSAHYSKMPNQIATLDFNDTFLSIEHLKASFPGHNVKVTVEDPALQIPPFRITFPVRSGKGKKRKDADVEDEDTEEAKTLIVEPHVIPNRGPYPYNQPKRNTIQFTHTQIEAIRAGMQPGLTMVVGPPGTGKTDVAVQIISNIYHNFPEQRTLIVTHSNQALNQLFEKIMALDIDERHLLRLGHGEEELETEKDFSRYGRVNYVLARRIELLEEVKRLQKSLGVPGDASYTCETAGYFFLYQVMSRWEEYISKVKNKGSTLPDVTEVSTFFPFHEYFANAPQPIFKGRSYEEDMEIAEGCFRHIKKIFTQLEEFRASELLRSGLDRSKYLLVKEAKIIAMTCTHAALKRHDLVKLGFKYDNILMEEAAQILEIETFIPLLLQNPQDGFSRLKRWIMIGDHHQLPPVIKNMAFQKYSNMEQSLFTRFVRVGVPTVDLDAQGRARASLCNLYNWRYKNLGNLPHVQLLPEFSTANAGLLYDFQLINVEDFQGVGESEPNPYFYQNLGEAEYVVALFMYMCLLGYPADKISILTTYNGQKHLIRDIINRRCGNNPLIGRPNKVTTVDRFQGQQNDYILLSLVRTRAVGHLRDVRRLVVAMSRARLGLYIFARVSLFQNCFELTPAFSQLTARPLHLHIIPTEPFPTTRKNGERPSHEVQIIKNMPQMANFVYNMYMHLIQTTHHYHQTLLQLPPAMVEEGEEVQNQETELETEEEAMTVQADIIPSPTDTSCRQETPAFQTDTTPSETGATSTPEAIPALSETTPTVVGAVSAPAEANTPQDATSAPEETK
UniProt Q96AK3: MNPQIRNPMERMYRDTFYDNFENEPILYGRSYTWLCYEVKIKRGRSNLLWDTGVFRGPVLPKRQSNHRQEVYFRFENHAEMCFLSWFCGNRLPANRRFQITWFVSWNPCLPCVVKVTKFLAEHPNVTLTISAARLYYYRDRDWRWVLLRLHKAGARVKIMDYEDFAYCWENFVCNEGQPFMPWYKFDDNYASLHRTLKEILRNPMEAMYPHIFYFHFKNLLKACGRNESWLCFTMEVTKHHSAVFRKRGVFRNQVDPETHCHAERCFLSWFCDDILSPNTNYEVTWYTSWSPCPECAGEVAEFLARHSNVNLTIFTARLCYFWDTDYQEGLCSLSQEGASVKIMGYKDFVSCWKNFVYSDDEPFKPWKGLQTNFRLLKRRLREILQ
UniProt Q8N392: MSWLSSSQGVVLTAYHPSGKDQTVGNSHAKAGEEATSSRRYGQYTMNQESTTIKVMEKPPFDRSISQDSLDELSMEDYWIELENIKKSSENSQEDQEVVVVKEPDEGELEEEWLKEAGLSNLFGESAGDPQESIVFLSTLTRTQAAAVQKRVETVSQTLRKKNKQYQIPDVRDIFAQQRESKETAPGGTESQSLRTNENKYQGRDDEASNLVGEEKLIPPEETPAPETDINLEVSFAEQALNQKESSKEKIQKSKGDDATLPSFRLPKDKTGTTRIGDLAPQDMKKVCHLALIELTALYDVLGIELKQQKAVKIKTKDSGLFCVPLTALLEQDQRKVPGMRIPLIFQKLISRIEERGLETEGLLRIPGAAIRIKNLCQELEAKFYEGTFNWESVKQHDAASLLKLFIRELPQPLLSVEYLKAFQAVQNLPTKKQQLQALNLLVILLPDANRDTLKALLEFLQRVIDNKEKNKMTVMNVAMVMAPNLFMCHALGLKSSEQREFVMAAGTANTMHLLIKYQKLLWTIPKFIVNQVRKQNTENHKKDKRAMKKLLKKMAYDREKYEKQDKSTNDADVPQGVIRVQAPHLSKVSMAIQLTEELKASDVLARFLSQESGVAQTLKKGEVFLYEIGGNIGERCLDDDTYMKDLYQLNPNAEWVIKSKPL
UniProt P78540: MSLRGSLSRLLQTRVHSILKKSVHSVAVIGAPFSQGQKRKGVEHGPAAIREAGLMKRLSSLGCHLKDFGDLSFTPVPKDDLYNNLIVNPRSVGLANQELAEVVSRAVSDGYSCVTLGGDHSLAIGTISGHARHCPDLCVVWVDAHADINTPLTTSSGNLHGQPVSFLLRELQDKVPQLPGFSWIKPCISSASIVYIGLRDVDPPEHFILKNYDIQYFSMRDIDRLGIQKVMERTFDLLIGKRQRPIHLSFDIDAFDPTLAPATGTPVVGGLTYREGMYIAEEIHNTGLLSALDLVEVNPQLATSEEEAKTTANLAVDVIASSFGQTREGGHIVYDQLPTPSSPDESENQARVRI
UniProt Q8WVL7: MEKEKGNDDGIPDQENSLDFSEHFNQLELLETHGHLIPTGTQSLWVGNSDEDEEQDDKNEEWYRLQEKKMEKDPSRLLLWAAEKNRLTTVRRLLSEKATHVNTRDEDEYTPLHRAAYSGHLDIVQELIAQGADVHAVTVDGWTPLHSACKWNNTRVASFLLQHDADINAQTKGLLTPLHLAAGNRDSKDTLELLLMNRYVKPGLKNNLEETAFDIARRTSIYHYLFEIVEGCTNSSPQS
UniProt P39687: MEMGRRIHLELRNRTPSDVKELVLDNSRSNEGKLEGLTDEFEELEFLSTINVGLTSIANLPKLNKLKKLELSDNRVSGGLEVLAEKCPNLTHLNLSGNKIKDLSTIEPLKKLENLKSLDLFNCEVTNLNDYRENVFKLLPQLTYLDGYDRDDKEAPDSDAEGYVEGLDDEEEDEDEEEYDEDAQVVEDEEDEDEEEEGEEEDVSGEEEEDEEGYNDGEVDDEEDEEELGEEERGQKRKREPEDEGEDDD
UniProt Q7Z2E3: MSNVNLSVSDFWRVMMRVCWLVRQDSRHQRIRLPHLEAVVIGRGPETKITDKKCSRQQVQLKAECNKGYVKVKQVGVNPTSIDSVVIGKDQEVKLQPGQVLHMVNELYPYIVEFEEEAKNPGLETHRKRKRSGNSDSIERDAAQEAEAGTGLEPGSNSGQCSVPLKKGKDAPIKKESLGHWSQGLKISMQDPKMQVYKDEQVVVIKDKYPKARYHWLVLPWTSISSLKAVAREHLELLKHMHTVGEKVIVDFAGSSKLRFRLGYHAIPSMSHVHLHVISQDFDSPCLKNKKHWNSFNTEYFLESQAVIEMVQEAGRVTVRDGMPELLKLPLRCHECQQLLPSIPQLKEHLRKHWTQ

Key:
Assay in all cases: log2 fold change, soluble protein after heating vs DMSO (PISA); higher = thermal stabilisation; K562 cells, 10 uM, 30 min; active = over 0.2 and 3.5 SD of the protein, either way, in both replicates (recomputed)
[1] = compound: CS(=O)(=O)c1ccc(-c2cnc(N)c(C(=O)Nc3ccccc3)n2)cc1
Method in brief: (§1)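 Soluble protein was defined as the supernatant after 21,000xg for 90 min. It came from K562 cells at 2×10^6 cells/mL given 10 μM compound for 30 min, heated in aliquots for 3 min across 48°C-58°C, pooled, and extracted in PBS with 0.5% NP-40 at 4°C, and was quantified by TMTpro 16plex LC-MS/MS with equalised channel sums. Thermal stability against control samples, from duplicates, is reported as log2 fold change.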

crizotinib = compound: C[C@@H](Oc1cc(-c2cnn(C3CCNCC3)c2)cnc1N)c1c(Cl)ccc(F)c1Cl [crizotinib]
Method in brief: as §1

[2] = compound: C[C@@H]1COCCN1C2=NC(=NC(=C2)C3(CC3)S(=O)(=O)C)C4=C5C=CNC5=CC=C4
Method in brief: as §1

[3] = compound: C[C@H](C1=CC=C(C=C1)C(=O)NC2=C3C=CNC3=NC=C2)N
Method in brief: as §1

duvelisib = compound: C[C@H](Nc1ncnc2nc[nH]c12)c1cc2cccc(Cl)c2c(=O)n1-c1ccccc1 [duvelisib]
Method in brief: as §1

gandotinib = compound: Cc1cc(Nc2cc(CN3CCOCC3)c3nc(C)c(Cc4ccc(Cl)cc4F)n3n2)n[nH]1 [gandotinib]
Method in brief: as §1

tozasertib = compound: Cc1cc(Nc2cc(N3CCN(C)CC3)nc(Sc3ccc(NC(=O)C4CC4)cc3)n2)n[nH]1 [tozasertib]
Method in brief: as §1

[4] = compound: Cc1cc(SCc2sc(-c3ccc(C(F)(F)F)cc3)nc2C)ccc1OCC(=O)O
Method in brief: as §1

doramapimod = compound: Cc1ccc(-n2nc(C(C)(C)C)cc2NC(=O)Nc2ccc(OCCN3CCOCC3)c3ccccc23)cc1 [doramapimod]
Method in brief: as §1

ispinesib = compound: Cc1ccc(C(=O)N(CCCN)[C@@H](c2nc3cc(Cl)ccc3c(=O)n2Cc2ccccc2)C(C)C)cc1 [ispinesib]
Method in brief: as §1

bafetinib = compound: Cc1ccc(NC(=O)c2ccc(CN3CC[C@H](N(C)C)C3)c(C(F)(F)F)c2)cc1Nc1nccc(-c2cncnc2)n1 [bafetinib]
Method in brief: as §1

[5] = compound: Cc1cccc(CC(=O)N2CCc3c2ccc(-c2cn(C)c4ncnc(N)c24)c3F)n1
Method in brief: as §1

nilotinib = compound: Cc1cn(-c2cc(NC(=O)c3ccc(C)c(Nc4nccc(-c5cccnc5)n4)c3)cc(C(F)(F)F)c2)cn1 [nilotinib]
Method in brief: as §1

[6] = compound: Cc1nc(Nc2n[nH]c3c2CN(C(=O)N[C@H](CN(C)C)c2ccccc2)C3(C)C)c2sccc2n1
Method in brief: as §1

dasatinib = compound: Cc1nc(Nc2ncc(C(=O)Nc3c(C)cccc3Cl)s2)cc(N2CCN(CCO)CC2)n1 [dasatinib]
Method in brief: as §1

[7] = compound: Cc1ncc(-c2ccnc(Nc3ccc(S(C)(=O)=O)cc3)n2)n1C(C)C
Method in brief: as §1

[8] = compound: Cn1cc(-c2ccc3c(c2)CCN3C(=O)Cc2cccc(C(F)(F)F)c2)c2c(N)ncnc21
Method in brief: as §1

[9] = compound: Cn1cc(-c2ccc3nnc(C(F)(F)c4ccc5ncccc5c4)n3n2)cn1
Method in brief: as §1

tipifarnib = compound: Cn1cncc1[C@@](N)(c1ccc(Cl)cc1)c1ccc2c(c1)c(-c1cccc(Cl)c1)cc(=O)n2C [tipifarnib]
Method in brief: as §1

mubritinib = compound: FC(F)(F)c1ccc(/C=C/c2nc(COc3ccc(CCCCn4ccnn4)cc3)co2)cc1 [mubritinib]
Method in brief: as §1

Measured: log2 fold change

AP3M1 (UniProt Q9Y2T2)
inactive: [1] 0.012 | crizotinib -0.117 | [2] 0.012 | [3] 0.007 | duvelisib -0.015 | gandotinib -0.081 | tozasertib 0.011 | [4] 0.055 | doramapimod -0.005 | ispinesib -0.027 | bafetinib 0.031 | [5] 0.076 | nilotinib -0.079 | [6] -0.037 | dasatinib -0.046 | [7] -0.025 | [8] 0.01 | [9] -0.006 | tipifarnib -0.037 | mubritinib 0.027

APOC1 (UniProt P02654)
inactive: [1] -0.125 | crizotinib 0.1 | [2] 0.27 | [3] -0.059 | duvelisib 0.133 | gandotinib -0.142 | tozasertib 0.046 | [4] 0.009 | doramapimod 0.03 | ispinesib 0.187 | bafetinib -0.124 | [5] 0.124 | nilotinib 0.033 | [6] 0.015 | dasatinib 0.099 | [7] -0.03 | [8] 0.05 | [9] 0.186 | tipifarnib 0.098 | mubritinib -0.026

AP1S1 (UniProt P61966)
inactive: [1] 0 | crizotinib -0.03 | [2] 0.034 | [3] 0.029 | duvelisib -0.028 | gandotinib -0.023 | tozasertib 0.095 | [4] 0.067 | doramapimod -0.033 | ispinesib -0.046 | bafetinib -0.023 | [5] 0.058 | nilotinib -0.067 | [6] -0.007 | dasatinib -0.059 | [7] -0.014 | [8] -0.073 | [9] -0.016 | tipifarnib -0.072 | mubritinib -0.008

ARFGAP3 (UniProt Q9NP61)
inactive: [1] 0.01 | crizotinib -0.03 | [2] 0.066 | [3] -0.01 | duvelisib 0.106 | gandotinib -0.032 | tozasertib -0.017 | [4] 0.035 | doramapimod 0.032 | ispinesib 0.16 | bafetinib -0.024 | [5] 0.031 | nilotinib -0.035 | [6] -0.021 | dasatinib -0.065 | [7] 0.002 | [8] 0.015 | [9] -0.011 | tipifarnib 0.019 | mubritinib 0.002

AP4E1 (UniProt Q9UPM8)
inactive: [1] 0.037 | crizotinib -0.055 | [2] 0.011 | [3] 0.113 | duvelisib 0.224 | gandotinib -0.096 | tozasertib -0.021 | [4] 0.023 | doramapimod -0.014 | ispinesib -0.078 | bafetinib 0.082 | [5] 0.066 | nilotinib -0.035 | [6] -0.435 | dasatinib -0.028 | [7] -0.003 | [8] -0.177 | [9] 0.011 | tipifarnib -0.162 | mubritinib 0.05

ARF1 (UniProt P84077)
inactive: [1] 0.032 | crizotinib 0.096 | [2] 0.053 | [3] 0.073 | duvelisib -0.024 | tozasertib -0.112 | [4] 0.072 | doramapimod -0.083 | ispinesib 0.001 | bafetinib 0.004 | nilotinib 0.017 | [6] 0.018 | dasatinib -0.062 | [7] 0.071 | [8] 0.061 | [9] -0.008 | tipifarnib 0.004 | mubritinib -0.022

ARF6 (UniProt P62330)
inactive: [1] 0.069 | crizotinib 0.034 | [2] 0.052 | [3] -0.065 | duvelisib 0.016 | gandotinib 0.04 | tozasertib -0.024 | [4] -0.054 | doramapimod -0.001 | ispinesib 0.126 | bafetinib 0.041 | [5] 0.046 | nilotinib -0.043 | [6] 0.027 | dasatinib 0.035 | [7] 0.027 | [8] -0.011 | [9] -0.032 | tipifarnib -0.03 | mubritinib 0.014

ARHGAP17 (UniProt Q68EM7)
inactive: [1] 0.059 | crizotinib -0.117 | [2] 0.06 | [3] 0.158 | duvelisib 0.009 | gandotinib 0.046 | tozasertib 0.177 | [4] 0.211 | doramapimod 0.08 | ispinesib -0.106 | bafetinib 0.043 | [5] 0.077 | nilotinib -0.162 | [6] 0.006 | dasatinib -0.291 | [7] 0.417 | [8] -0.024 | [9] -0.002 | tipifarnib -0.182 | mubritinib -0.026

3 neighbouring records already listed, for reference:
ARFGAP3 (UniProt Q9NP61)
inactive: [1] 0.01 | crizotinib -0.03 | [2] 0.066 | [3] -0.01 | duvelisib 0.106 | gandotinib -0.032 | tozasertib -0.017 | [4] 0.035 | doramapimod 0.032 | ispinesib 0.16 | bafetinib -0.024 | [5] 0.031 | nilotinib -0.035 | [6] -0.021 | dasatinib -0.065 | [7] 0.002 | [8] 0.015 | [9] -0.011 | tipifarnib 0.019 | mubritinib 0.002

AP4E1 (UniProt Q9UPM8)
inactive: [1] 0.037 | crizotinib -0.055 | [2] 0.011 | [3] 0.113 | duvelisib 0.224 | gandotinib -0.096 | tozasertib -0.021 | [4] 0.023 | doramapimod -0.014 | ispinesib -0.078 | bafetinib 0.082 | [5] 0.066 | nilotinib -0.035 | [6] -0.435 | dasatinib -0.028 | [7] -0.003 | [8] -0.177 | [9] 0.011 | tipifarnib -0.162 | mubritinib 0.05

ARF1 (UniProt P84077)
inactive: [1] 0.032 | crizotinib 0.096 | [2] 0.053 | [3] 0.073 | duvelisib -0.024 | tozasertib -0.112 | [4] 0.072 | doramapimod -0.083 | ispinesib 0.001 | bafetinib 0.004 | nilotinib 0.017 | [6] 0.018 | dasatinib -0.062 | [7] 0.071 | [8] 0.061 | [9] -0.008 | tipifarnib 0.004 | mubritinib -0.022

Continuation:

AQR (UniProt O60306)
inactive: [1] 0.036 | crizotinib -0.183 | [2] -0.003 | [3] 0.258 | duvelisib -0.092 | gandotinib -0.006 | tozasertib -0.121 | [4] 0.114 | doramapimod 0.128 | ispinesib -0.116 | [5] -0.047 | dasatinib -0.049 | [8] -0.162 | [9] -0.096 | tipifarnib 0.023 | mubritinib 0.033

APOBEC3D (UniProt Q96AK3)
inactive: [1] -0.075 | crizotinib -0.194 | [2] -0.358 | [3] 0.196 | duvelisib -0.286 | tozasertib -0.022 | [4] -0.015 | doramapimod 0.074 | ispinesib -0.092 | bafetinib 0.027 | dasatinib 0.008 | [8] -0.211 | [9] -0.086 | tipifarnib 0.183 | mubritinib -0.107

ARHGAP18 (UniProt Q8N392)
inactive: [1] 0.074 | crizotinib -0.103 | [2] 0 | [3] 0.031 | duvelisib -0.013 | gandotinib -0.134 | tozasertib 0.103 | [4] 0.095 | doramapimod -0.054 | ispinesib -0.124 | bafetinib -0.005 | [5] 0.056 | nilotinib -0.092 | [6] -0.041 | dasatinib -0.233 | [7] 0.12 | [8] 0.08 | [9] 0.019 | tipifarnib -0.109 | mubritinib 0.191

ARG2 (UniProt P78540)
inactive: [1] -0.001 | crizotinib 0.088 | [2] 0.036 | [3] 0.034 | duvelisib 0.038 | gandotinib -0.05 | tozasertib 0 | [4] -0.033 | doramapimod 0.032 | ispinesib -0.092 | bafetinib -0.038 | [5] -0.046 | nilotinib -0.024 | [6] -0.009 | dasatinib 0.001 | [7] -0.015 | [8] 0.026 | [9] 0.014 | tipifarnib 0.024 | mubritinib 0.042

ANKRD49 (UniProt Q8WVL7)
inactive: [1] -0.017 | crizotinib 0.035 | [2] 0.075 | [3] -0.08 | duvelisib 0.012 | gandotinib -0.02 | tozasertib 0.012 | [4] 0.036 | doramapimod 0.028 | ispinesib 0.049 | bafetinib -0.001 | [5] 0.125 | nilotinib 0.01 | [6] -0.027 | dasatinib 0.04 | [7] 0.021 | [8] 0.035 | [9] -0.017 | tipifarnib -0.015 | mubritinib 0.106

APEH (UniProt P13798)
inactive: [1] 0.004 | crizotinib 0.051 | [2] 0.036 | [3] -0.031 | duvelisib 0.023 | gandotinib 0.013 | tozasertib -0.033 | [4] -0.048 | doramapimod -0.011 | ispinesib 0.005 | bafetinib -0.027 | [5] -0.034 | nilotinib -0.01 | [6] 0.009 | dasatinib 0.035 | [7] -0.006 | [8] 0.002 | [9] 0.027 | tipifarnib 0.015 | mubritinib 0.037

ANO10 (UniProt Q9NW15)
inactive: [1] 0.065 | crizotinib 0.041 | [2] 0.065 | [3] -0.109 | duvelisib 0.013 | gandotinib -0.061 | tozasertib 0.001 | [4] -0.031 | doramapimod -0.038 | ispinesib 0.155 | bafetinib -0.048 | [5] 0.002 | nilotinib -0.047 | [6] 0.033 | dasatinib 0.036 | [7] -0.016 | [8] 0.025 | [9] 0.038 | tipifarnib 0.002 | mubritinib 0.016

ANP32A (UniProt P39687)
inactive: [1] -0.005 | crizotinib 0.012 | [2] 0.081 | [3] -0.086 | duvelisib 0.016 | gandotinib -0.064 | tozasertib 0.018 | [4] -0.029 | doramapimod -0.051 | ispinesib 0.089 | bafetinib 0.042 | [5] 0.085 | nilotinib 0.023 | [6] -0.03 | dasatinib 0.022 | [7] -0.019 | [8] 0.049 | [9] -0.029 | tipifarnib -0.04 | mubritinib 0.024

APTX (UniProt Q7Z2E3)
inactive: [1] 0.126 | crizotinib 0.051 | [2] -0.062 | [3] 0.174 | duvelisib 0.059 | gandotinib -0.083 | [4] 0.096 | doramapimod -0.038 | [5] -0.113 | dasatinib -0.026 | [8] -0.011
